Drawing on the supplement of paper PMC10849652, this text covers log2 fold change for 11 targets.

By UniProt entry, the sequences of proteins in these tests, tags left out. Where a name states a change or a piece, a line headed by the entry shows the natural chain unless it says otherwise.
UniProt Q5VUJ9: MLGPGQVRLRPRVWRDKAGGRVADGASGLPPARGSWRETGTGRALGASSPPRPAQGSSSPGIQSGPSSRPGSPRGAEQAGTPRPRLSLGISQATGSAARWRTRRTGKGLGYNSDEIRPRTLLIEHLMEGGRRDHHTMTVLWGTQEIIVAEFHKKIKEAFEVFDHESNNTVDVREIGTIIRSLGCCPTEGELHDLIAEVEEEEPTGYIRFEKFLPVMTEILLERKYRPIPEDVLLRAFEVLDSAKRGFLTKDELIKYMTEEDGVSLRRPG
UniProt Q9NZJ5: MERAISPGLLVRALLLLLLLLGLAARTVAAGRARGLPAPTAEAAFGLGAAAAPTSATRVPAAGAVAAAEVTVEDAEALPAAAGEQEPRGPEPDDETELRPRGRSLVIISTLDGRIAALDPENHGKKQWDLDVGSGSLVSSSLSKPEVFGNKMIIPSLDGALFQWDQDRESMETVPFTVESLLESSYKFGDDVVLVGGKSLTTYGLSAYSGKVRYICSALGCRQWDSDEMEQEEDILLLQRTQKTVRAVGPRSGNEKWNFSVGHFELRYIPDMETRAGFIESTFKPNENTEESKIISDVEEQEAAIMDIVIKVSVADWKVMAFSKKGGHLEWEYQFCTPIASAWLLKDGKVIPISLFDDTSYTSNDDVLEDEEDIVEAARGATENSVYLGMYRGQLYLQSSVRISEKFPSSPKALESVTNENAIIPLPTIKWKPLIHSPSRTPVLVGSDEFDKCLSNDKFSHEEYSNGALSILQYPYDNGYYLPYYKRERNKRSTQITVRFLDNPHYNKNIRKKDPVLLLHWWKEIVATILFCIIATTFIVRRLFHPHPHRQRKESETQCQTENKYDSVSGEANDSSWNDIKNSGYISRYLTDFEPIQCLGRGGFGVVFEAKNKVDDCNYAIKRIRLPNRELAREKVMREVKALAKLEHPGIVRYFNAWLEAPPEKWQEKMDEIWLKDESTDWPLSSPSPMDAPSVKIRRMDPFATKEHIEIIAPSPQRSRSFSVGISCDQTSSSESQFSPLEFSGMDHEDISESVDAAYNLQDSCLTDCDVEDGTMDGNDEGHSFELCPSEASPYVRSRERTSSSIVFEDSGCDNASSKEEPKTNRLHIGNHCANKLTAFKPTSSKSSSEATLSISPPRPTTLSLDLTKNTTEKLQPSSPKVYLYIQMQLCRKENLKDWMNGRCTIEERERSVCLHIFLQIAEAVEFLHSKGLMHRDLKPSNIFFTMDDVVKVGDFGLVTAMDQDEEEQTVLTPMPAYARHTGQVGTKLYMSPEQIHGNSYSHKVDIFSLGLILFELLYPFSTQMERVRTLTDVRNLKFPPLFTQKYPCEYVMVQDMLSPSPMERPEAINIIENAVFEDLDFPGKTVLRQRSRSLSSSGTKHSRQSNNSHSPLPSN
UniProt Q05BV3: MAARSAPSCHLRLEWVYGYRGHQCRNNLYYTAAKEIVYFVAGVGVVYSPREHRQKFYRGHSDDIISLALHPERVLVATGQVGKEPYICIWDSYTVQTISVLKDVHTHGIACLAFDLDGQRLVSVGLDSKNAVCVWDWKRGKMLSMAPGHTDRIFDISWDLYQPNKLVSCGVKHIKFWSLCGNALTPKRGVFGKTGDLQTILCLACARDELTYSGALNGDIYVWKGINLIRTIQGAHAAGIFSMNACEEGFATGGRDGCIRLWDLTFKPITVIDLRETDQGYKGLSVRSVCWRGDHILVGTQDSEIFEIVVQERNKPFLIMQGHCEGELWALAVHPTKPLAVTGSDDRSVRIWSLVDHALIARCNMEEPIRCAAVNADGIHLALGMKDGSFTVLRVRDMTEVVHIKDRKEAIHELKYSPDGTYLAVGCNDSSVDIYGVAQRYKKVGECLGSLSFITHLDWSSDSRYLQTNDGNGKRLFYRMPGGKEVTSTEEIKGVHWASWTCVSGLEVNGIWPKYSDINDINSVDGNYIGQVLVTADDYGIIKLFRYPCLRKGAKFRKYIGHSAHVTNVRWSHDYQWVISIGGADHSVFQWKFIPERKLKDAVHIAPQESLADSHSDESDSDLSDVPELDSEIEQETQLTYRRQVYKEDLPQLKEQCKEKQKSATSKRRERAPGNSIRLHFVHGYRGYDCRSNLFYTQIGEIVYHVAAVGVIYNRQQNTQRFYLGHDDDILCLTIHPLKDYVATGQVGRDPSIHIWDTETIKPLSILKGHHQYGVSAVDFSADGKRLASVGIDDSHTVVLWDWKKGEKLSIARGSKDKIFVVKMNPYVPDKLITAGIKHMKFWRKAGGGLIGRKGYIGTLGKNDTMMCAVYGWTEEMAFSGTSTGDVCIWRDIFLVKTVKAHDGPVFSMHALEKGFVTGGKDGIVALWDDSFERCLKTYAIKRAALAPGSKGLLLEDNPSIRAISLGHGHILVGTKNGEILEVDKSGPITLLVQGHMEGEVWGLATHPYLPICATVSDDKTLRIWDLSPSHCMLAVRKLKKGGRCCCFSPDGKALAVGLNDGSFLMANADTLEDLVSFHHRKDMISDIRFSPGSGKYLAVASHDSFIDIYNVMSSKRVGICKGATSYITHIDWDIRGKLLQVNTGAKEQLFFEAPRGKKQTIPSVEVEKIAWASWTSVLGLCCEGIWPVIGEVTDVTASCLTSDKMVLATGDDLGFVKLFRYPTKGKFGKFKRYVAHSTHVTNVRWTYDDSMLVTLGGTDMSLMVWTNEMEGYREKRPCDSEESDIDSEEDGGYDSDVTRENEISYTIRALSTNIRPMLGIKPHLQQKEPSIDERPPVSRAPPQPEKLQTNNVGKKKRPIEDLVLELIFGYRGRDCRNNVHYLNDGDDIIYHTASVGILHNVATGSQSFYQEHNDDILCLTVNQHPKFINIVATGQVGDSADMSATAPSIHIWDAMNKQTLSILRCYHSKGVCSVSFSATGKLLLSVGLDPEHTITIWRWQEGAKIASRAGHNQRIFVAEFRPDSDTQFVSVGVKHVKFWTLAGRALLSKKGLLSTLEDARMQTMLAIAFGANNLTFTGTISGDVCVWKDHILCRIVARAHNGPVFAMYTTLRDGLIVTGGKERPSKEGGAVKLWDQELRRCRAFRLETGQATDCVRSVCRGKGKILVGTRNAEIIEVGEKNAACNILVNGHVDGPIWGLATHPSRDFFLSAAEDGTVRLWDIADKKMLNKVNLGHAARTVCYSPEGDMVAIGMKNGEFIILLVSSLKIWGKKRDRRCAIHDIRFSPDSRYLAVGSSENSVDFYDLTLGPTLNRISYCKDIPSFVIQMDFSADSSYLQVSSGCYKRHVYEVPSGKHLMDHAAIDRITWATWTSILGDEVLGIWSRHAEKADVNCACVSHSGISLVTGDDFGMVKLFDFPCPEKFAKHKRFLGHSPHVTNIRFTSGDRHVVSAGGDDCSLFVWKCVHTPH
UniProt Q92556, whole entry, looked up: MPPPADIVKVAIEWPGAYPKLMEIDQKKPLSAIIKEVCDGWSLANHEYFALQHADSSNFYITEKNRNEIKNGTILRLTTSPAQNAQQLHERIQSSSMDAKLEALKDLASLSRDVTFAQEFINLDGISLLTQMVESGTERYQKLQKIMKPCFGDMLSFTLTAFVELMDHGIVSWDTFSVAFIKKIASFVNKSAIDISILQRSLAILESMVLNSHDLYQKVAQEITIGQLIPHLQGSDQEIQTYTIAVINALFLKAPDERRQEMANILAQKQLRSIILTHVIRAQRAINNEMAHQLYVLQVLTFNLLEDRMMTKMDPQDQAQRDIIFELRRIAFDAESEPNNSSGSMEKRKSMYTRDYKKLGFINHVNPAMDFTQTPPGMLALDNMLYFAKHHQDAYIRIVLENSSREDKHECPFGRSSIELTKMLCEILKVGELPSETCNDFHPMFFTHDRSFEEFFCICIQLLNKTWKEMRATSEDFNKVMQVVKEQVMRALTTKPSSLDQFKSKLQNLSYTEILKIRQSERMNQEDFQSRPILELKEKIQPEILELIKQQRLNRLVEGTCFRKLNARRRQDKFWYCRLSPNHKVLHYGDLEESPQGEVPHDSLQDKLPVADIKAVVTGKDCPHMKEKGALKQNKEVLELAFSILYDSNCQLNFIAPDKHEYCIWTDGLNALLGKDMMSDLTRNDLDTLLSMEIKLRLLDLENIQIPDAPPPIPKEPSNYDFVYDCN
UniProt O14638, whole entry, looked up: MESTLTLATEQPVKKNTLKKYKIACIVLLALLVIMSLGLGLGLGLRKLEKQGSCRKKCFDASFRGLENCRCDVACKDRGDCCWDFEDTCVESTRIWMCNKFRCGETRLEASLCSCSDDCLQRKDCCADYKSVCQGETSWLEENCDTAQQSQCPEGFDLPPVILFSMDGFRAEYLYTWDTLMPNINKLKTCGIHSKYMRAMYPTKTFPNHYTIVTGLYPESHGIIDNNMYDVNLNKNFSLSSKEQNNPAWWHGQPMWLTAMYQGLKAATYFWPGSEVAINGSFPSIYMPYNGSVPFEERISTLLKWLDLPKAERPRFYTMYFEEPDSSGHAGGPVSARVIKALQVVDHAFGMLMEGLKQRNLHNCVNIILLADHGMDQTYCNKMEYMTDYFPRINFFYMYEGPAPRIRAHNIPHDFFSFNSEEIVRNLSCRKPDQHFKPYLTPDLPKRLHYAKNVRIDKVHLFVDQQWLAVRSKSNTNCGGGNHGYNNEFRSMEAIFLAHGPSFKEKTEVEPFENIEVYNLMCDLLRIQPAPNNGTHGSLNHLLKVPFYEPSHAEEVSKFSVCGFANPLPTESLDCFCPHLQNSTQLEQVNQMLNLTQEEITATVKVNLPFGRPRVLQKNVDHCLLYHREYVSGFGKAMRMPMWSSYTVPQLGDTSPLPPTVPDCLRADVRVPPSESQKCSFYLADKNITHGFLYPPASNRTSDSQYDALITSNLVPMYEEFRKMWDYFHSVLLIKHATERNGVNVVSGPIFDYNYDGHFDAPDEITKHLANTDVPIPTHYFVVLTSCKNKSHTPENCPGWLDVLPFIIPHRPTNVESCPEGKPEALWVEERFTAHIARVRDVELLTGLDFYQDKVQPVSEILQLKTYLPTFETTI
UniProt O75822, whole entry, looked up: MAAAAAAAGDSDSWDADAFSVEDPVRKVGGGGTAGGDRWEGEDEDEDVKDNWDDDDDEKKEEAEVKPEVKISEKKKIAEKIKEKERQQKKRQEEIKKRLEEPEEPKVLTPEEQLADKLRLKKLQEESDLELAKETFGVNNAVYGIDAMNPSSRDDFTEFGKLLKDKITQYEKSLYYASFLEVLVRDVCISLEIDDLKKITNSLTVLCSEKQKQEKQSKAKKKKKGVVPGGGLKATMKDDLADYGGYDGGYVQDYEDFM
UniProt Q9NRA8: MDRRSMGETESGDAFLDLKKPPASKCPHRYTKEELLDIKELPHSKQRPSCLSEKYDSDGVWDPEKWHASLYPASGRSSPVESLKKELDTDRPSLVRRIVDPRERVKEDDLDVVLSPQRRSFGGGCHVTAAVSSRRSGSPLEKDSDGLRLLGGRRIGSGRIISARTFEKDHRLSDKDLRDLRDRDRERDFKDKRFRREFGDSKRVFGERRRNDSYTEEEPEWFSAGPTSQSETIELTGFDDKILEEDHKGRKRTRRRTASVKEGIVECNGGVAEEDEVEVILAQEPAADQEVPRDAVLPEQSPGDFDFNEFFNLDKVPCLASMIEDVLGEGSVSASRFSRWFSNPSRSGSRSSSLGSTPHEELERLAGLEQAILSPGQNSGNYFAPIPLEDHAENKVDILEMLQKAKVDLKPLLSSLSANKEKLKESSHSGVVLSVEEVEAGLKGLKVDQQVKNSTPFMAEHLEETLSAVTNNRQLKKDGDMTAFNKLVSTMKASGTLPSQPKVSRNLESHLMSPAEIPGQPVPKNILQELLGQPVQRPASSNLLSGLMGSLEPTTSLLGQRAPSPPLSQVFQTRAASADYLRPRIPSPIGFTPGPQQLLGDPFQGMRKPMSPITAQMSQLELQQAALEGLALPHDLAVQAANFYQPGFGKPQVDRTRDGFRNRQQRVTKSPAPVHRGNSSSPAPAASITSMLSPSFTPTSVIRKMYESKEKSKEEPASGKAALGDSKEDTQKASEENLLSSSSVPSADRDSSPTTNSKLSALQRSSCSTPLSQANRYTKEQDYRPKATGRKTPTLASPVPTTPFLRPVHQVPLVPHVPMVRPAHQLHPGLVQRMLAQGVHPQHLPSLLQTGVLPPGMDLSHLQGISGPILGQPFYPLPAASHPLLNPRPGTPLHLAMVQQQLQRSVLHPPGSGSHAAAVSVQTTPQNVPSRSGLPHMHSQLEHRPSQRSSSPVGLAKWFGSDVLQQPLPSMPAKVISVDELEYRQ

This is one part of the list.

Compound in this test: C1=CC(=CC=C1C2=NC3=C(N2)C=C(C=C3)C(=O)N)OC4=CC=C(C=C4)Cl
The test can be described thus: log2 fold change, soluble protein after heating vs DMSO (PISA); higher = thermal stabilisation; K562 cells, 10 uM, 30 min; active = over 0.2 and 3.5 SD of the protein, either way, in both replicates (recomputed). The procedure, abridged:
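Values are thermal stability changes relative to control samples and are taken from duplicates. They are stated as log2 fold changes. Before quantification by TMTpro 16plex LC-MS/MS with equalised channel sums, K562 cells at 2×10^6 cells/mL were treated with 10 μM compound for 30 min, heated in aliquots for 3 min across 48°C-58°C, pooled, extracted in PBS with 0.5% NP-40 at 4°C, and centrifuged at 21,000xg for 90 min to give the soluble supernatant.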
Regarding EFCAB2 (UniProt Q5VUJ9), the log2 fold change is inactive: -0.159.

On to EPB41, A0A2R8Y6D0, for which the log2 fold change is inactive: 0.033.

On to EIF2AK3 (UniProt Q9NZJ5), for which the log2 fold change is inactive: -0.222.

EML5 isoform 5 (UniProt Q05BV3): the log2 fold change is inactive: 0.024.

As to ELMO1 (UniProt Q92556), the log2 fold change is inactive: -0.001.

Regarding ENPP3 (UniProt O14638), the log2 fold change is inactive: 0.003.

EIF3J (UniProt O75822): the log2 fold change is inactive: -0.033.

For the target ELOVL5 isoform 2 (UniProt Q9NYP7), the log2 fold change is inactive: -0.005.

Turning to EIF4H isoform 2 (UniProt Q15056), the log2 fold change was inactive: 0.001.

Take EIF4ENIF1 isoform 3 (UniProt Q9NRA8): the log2 fold change is inactive: 0.01.

As for ELF1 (UniProt P32519), the log2 fold change was inactive: 0.028.
